Data on ten compounds can be found in the supplement of paper PMC4604168 (melanoma cell lines).

Test systems include MZ2-MEL; MeWo; RPMI7951; RVH-421; SkMel28; SkMel30; UACC62; WM115; WM1716; WM1745; WM3526; WM3619; WM451Lu; SkMel5; UACC257; SkMel2.
Experiment in all cases: cleaved PARP positive nuclei fraction relative to DMSO control; melanoma cells; higher = more apoptosis
What all share (settings): library dose: low library concentration; 72 h

The list shows a part of the results. Single values are uncertain, as repeats are few or missing.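 Cells were imaged in 1,536-well plates, and nuclei stained with an antibody against cleaved PARP were counted against all DNA-stained nuclei to give the apoptosis fraction. Screening doses were chosen to leave most cells alive, and resting and induced cleaved-PARP levels differ strongly between cell lines.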

As for `CO[C@H]1C[C@@H]2CC[C@@H](C)[C@@](O)(O2)C(=O)C(=O)N2CCCC[C@H]2C(=O)O[C@H]([C@H](C)C[C@@H]2CC[C@@H](OCCO)[C@H](OC)C2)CC(=O)[C@H](C)/C=C(\C)[C@@H](O)[C@@H](OC)C(=O)[C@H](C)C[C@H](C)/C=C/C=C/C=C/1C` [everolimus] + Clc1ccc(Nc2nnc(Cc3ccncc3)c3ccccc23)cc1 [vatalanib] (first compound 0.02 µM, partner dose 2 µM), the “cleaved PARP positive nuclei fraction” value is 64% in the experiment on MZ2-MEL; 172% in the experiment with MeWo; 162% with RPMI7951; 142% in the experiment with RVH-421; 142% in the experiment on SkMel28; 188% with SkMel30. The “cleaved PARP positive nuclei fraction” value in the experiment on UACC62 stood at 285%; with WM115, 125%; in the experiment on WM1716 it was 110%; in the experiment with WM1745, 127%; in the experiment with WM3526 it was 68.3%; in the experiment on WM3619, 134%. Besides, the “cleaved PARP positive nuclei fraction” value in the experiment with WM451Lu amounted to 24.2%.
For `CO[C@H]1C[C@@H]2CC[C@@H](C)[C@@](O)(O2)C(=O)C(=O)N2CCCC[C@H]2C(=O)O[C@H]([C@H](C)C[C@@H]2CC[C@@H](OCCO)[C@H](OC)C2)CC(=O)[C@H](C)/C=C(\C)[C@@H](O)[C@@H](OC)C(=O)[C@H](C)C[C@H](C)/C=C/C=C/C=C/1C` [everolimus] + CCCCCCCCCCCC1=C(O)C(=O)C=C(O)C1=O [Embelin] (first compound 0.02 µM, partner dose 1.2 µM), the “cleaved PARP positive nuclei fraction” value in the experiment with MZ2-MEL was found to be 124%; with MeWo, 98.4%; in the experiment with RPMI7951 it was 80.9%; with RVH-421 it was 26%; in the experiment with SkMel28 it was 493%; with SkMel30, 66.2%. Also, the “cleaved PARP positive nuclei fraction” value is 124% in the experiment with SkMel5; 174% with UACC257; 261% in the experiment on UACC62; 296% in the experiment on WM115; 225% in the experiment with WM1716; 98.9% in the experiment on WM1745. Also, the “cleaved PARP positive nuclei fraction” value in the experiment with WM3526 was 112%; in the experiment on WM3619, 137%; in the experiment with WM451Lu, 87.1%.
In the case of `CO[C@H]1C[C@@H]2CC[C@@H](C)[C@@](O)(O2)C(=O)C(=O)N2CCCC[C@H]2C(=O)O[C@H]([C@H](C)C[C@@H]2CC[C@@H](OCCO)[C@H](OC)C2)CC(=O)[C@H](C)/C=C(\C)[C@@H](O)[C@@H](OC)C(=O)[C@H](C)C[C@H](C)/C=C/C=C/C=C/1C` [everolimus] + Nc1ccn([C@@H]2O[C@H](CO)[C@@H](O)C2(F)F)c(=O)n1 [gemcitabine] (first compound 0.02 µM, partner dose 0.0004 µM), the “cleaved PARP positive nuclei fraction” value came out at 102% with MZ2-MEL; 103% in the experiment on MeWo; 83.2% in the experiment on RPMI7951; 108% with RVH-421; 141% with SkMel28; 102% in the experiment on SkMel30. Besides, the “cleaved PARP positive nuclei fraction” value in the experiment with UACC62 was 357%; in the experiment on WM115 it was 113%; with WM1716, 119%; in the experiment on WM1745, 257%; in the experiment with WM3526, 154%; in the experiment on WM3619 it was 155%. The “cleaved PARP positive nuclei fraction” value with WM451Lu was found to be 54%.
Turning to `CC(C)C[C@H](NC(=O)[C@H](Cc1ccccc1)NC(=O)c1cnccn1)B(O)O` [Bortezomib] + CC1(C)NC(=O)N(c2ccc([N+](=O)[O-])c(C(F)(F)F)c2)C1=O [nilutamide] (first compound 0.001 µM, partner dose 1 µM), the “cleaved PARP positive nuclei fraction” value came out at 108% with MeWo; 62.4% in the experiment on RPMI7951; 241% in the experiment with RVH-421; 49.3% in the experiment with SkMel28; 66.5% in the experiment on SkMel2; 50.9% with SkMel30. Further, the “cleaved PARP positive nuclei fraction” value in the experiment on SkMel5 was found to be 109%; in the experiment on UACC257, 75.3%; in the experiment on UACC62 it was 57.1%; in the experiment on WM115, 43.7%; with WM1716 it was 541%; with WM1745 it was 132%. The “cleaved PARP positive nuclei fraction” value amounted to 66.4% in the experiment on WM3526, 438% in the experiment on WM3619 and 127% in the experiment on WM451Lu.
With `C[C@@H](Oc1cc(-c2cnn(C3CCNCC3)c2)cnc1N)c1c(Cl)ccc(F)c1Cl` [Crizotinib] + CNC(=O)c1cc(Oc2ccc(NC(=O)Nc3ccc(Cl)c(C(F)(F)F)c3)cc2)ccn1 [sorafenib] (first compound 0.2 µM, partner dose 0.4 µM), the “cleaved PARP positive nuclei fraction” value with MZ2-MEL came to 35.7%; in the experiment with MeWo it was 72.8%; in the experiment on RPMI7951, 139%; with RVH-421 it was 205%; in the experiment with SkMel28, 87.7%; with SkMel30, 159%. For the same compound, the “cleaved PARP positive nuclei fraction” value in the experiment on UACC62 was determined as 27.1%; in the experiment on WM115 it was 109%; with WM1716, 29.6%; in the experiment on WM1745, 103%; in the experiment on WM3526, 69.7%; in the experiment on WM3619, 92.8%. Also, the “cleaved PARP positive nuclei fraction” value with WM451Lu is 79.8%.
For the compound `CC(C)C[C@H](NC(=O)[C@H](Cc1ccccc1)NC(=O)c1cnccn1)B(O)O` [Bortezomib] + Nc1ncn([C@H]2C[C@H](O)[C@@H](CO)O2)c(=O)n1 [decitabine] (first compound 0.001 µM, partner dose 0.1 µM), the “cleaved PARP positive nuclei fraction” value in the experiment on MZ2-MEL was 350%; with MeWo, 112%; in the experiment on RPMI7951, 518%; in the experiment with RVH-421 it was 343%; in the experiment with SkMel28, 45.3%; with SkMel30, 64.9%. Also, the “cleaved PARP positive nuclei fraction” value amounted to 171% in the experiment with UACC62; 85.7% in the experiment with WM115; 1130% in the experiment on WM1716; 391% in the experiment on WM1745; 88.7% in the experiment on WM3526; 637% in the experiment on WM3619. Moreover, in the experiment on WM451Lu, the “cleaved PARP positive nuclei fraction” value came out at 98.9%.
Take `CO[C@H]1C[C@@H]2CC[C@@H](C)[C@@](O)(O2)C(=O)C(=O)N2CCCC[C@H]2C(=O)O[C@H]([C@H](C)C[C@@H]2CC[C@@H](OCCO)[C@H](OC)C2)CC(=O)[C@H](C)/C=C(\C)[C@@H](O)[C@@H](OC)C(=O)[C@H](C)C[C@H](C)/C=C/C=C/C=C/1C` [everolimus] + CNC(=O)c1cc(Oc2ccc(NC(=O)Nc3ccc(Cl)c(C(F)(F)F)c3)cc2)ccn1 [sorafenib] (first compound 0.02 µM, partner dose 0.4 µM): the “cleaved PARP positive nuclei fraction” value in the experiment on MZ2-MEL was determined as 93.1%; with MeWo, 143%; with RPMI7951, 67.9%; with RVH-421, 35.2%; in the experiment with SkMel28, 328%; in the experiment with SkMel30, 58.6%. Further, the “cleaved PARP positive nuclei fraction” value turned out to be 443% in the experiment with UACC62; 84% in the experiment with WM115; 111% in the experiment on WM1716; 101% in the experiment with WM1745; 107% with WM3526; 116% in the experiment on WM3619. Besides, in the experiment on WM451Lu, the “cleaved PARP positive nuclei fraction” value worked out at 80.3%.
In the case of `CO[C@H]1C[C@@H]2CC[C@@H](C)[C@@](O)(O2)C(=O)C(=O)N2CCCC[C@H]2C(=O)O[C@H]([C@H](C)C[C@@H]2CC[C@@H](OCCO)[C@H](OC)C2)CC(=O)[C@H](C)/C=C(\C)[C@@H](O)[C@@H](OC)C(=O)[C@H](C)C[C@H](C)/C=C/C=C/C=C/1C` [everolimus] + Cn1c(Nc2ccc(C(F)(F)F)cc2)nc2cc(Oc3ccnc(-c4ncc(C(F)(F)F)[nH]4)c3)ccc21 [CHIR265] (first compound 0.02 µM, partner dose 0.08 µM), the “cleaved PARP positive nuclei fraction” value came to 248% with MZ2-MEL; 143% with MeWo; 131% in the experiment on RPMI7951; 141% in the experiment on RVH-421; 105% in the experiment with SkMel28; 48.3% in the experiment on SkMel30. Besides, the “cleaved PARP positive nuclei fraction” value came out at 707% in the experiment with UACC62; 786% in the experiment with WM115; 231% with WM1716; 130% in the experiment with WM1745; 89% in the experiment on WM3526; 120% with WM3619. Also, the “cleaved PARP positive nuclei fraction” value in the experiment with WM451Lu was determined as 286%.
Turning to `CO[C@H]1C[C@@H]2CC[C@@H](C)[C@@](O)(O2)C(=O)C(=O)N2CCCC[C@H]2C(=O)O[C@H]([C@H](C)C[C@@H]2CC[C@@H](OCCO)[C@H](OC)C2)CC(=O)[C@H](C)/C=C(\C)[C@@H](O)[C@@H](OC)C(=O)[C@H](C)C[C@H](C)/C=C/C=C/C=C/1C` [everolimus] + CCCS(=O)(=O)Nc1ccc(F)c(C(=O)c2c[nH]c3ncc(Cl)cc23)c1F [PLX4720] (first compound 0.02 µM, partner dose 0.08 µM), the “cleaved PARP positive nuclei fraction” value with MZ2-MEL was 275%; in the experiment with MeWo it was 138%; in the experiment with RPMI7951, 73.2%; with RVH-421, 120%; in the experiment with SkMel28, 279%; in the experiment on SkMel30, 112%. In addition, the “cleaved PARP positive nuclei fraction” value is 840% with UACC62; 217% with WM115; 45.3% in the experiment with WM1716; 111% with WM1745; 81.8% in the experiment on WM3526; 137% in the experiment on WM3619. Also, the “cleaved PARP positive nuclei fraction” value in the experiment with WM451Lu was found to be 211%.
In the case of `Cc1cc(Nc2cc(N3CCN(C)CC3)nc(/C=C/c3ccccc3)n2)n[nH]1` + COc1cc2ncnc(Nc3ccc(Oc4ccccc4)cc3)c2cc1OC [SrcI1] (first compound 0.04 µM, partner dose 2 µM), the “cleaved PARP positive nuclei fraction” value was 39% in the experiment on MeWo; 83.2% in the experiment on RPMI7951; 182% with RVH-421; 16.8% with SkMel28; 104% with SkMel2; 71% in the experiment on SkMel30. Moreover, the “cleaved PARP positive nuclei fraction” value in the experiment with SkMel5 was 79.5%; in the experiment with UACC257 it was 37.4%; with UACC62 it was 266%; in the experiment on WM115, 74.5%; in the experiment on WM1716 it was 86.5%; in the experiment with WM1745, 102%. Besides, the “cleaved PARP positive nuclei fraction” value in the experiment with WM3526 is 84.6%; with WM3619, 94.5%; with WM451Lu, 63.1%.
